# Source: the supplement of paper PMC8497498
# ± gives the standard deviation of the averaged measurements. Some of the results follow. The data scatter; read single values as rough.
# Experiments:
# Conditions in all cases: 10 µM
# [1] = test system: Plasmodium vivax liver stage (primary human hepatocyte culture); test: hypnozoite quantity inhibition (% inhibition); higher = more active against hypnozoites
# [2] = test system: Plasmodium vivax liver stage (primary human hepatocyte culture); test: schizont net growth area inhibition (% inhibition); higher = more active against liver schizonts
# [3] = test system: primary human hepatocytes; test: hepatic nuclei reduction relative to DMSO (100 - % of negative control); higher = more toxic to hepatocytes
# [4] = assay mode: Prophylactic (treated before or shortly after infection), fixed day 6 post-infection
# [5] = assay mode: Radical Cure (treated from day 5 post-infection for 3 days), fixed day 8 post-infection
Compound,"hypnozoite quantity inhibition [1, 4]","hypnozoite quantity inhibition [1, 5]","schizont net growth area inhibition [2, 4]","schizont net growth area inhibition [2, 5]","hepatic nuclei reduction [3, 4]","hepatic nuclei reduction [3, 5]"
COc1cccc(-c2nn(C)c3sc(C(=O)NCCN4CCN(c5ccccc5F)CC4)cc23)c1,-6.3,15.6,14.6,-26.2,-3%,-8%
CSc1ccccc1C(=O)Nc1nc(-c2ccccn2)cs1,53.1,45.5,85.5,18,-3%,2%
CCCCN(CCCC)c1c(C#N)cc(S(=O)(=O)Nc2ccccc2)cc1C#N,-45,-49,22.4,-204,-7%,-5%
COc1cc2c3cc1Oc1c(OC)c(OC)cc4c1C(Cc1ccc(O)c(c1)Oc1ccc(cc1)CC3N(C)CC2)N(C)CC4 (stereo not given),-13.2,56.5,-64.3,35.1,-9%,6%
O=C(c1ccco1)N(CCCn1ccnc1)c1nc2c(Cl)cccc2s1,-37,-4,28,-107,-10%,-10%
Cc1ccc(S(=O)(=O)Nc2ccc(CN3CCN(C(=O)c4cccc(C#N)c4)CC3)cc2)cc1,1,27,-6.8,-34.4,3%,2%
O=C(CSc1ccc2nnc(-c3cccc(F)c3)n2n1)Nc1ccc2c(c1)OCO2,-38.5,29,12.1,40.8,-11%,1%
OCCc1ccc(Nc2nccc(-c3nnc4ccccn34)n2)cc1,-80,-65,32.3,-24.3,-12%,-7%
CCCn1nnc(NC(=O)COc2ccc(C3CCCCC3)cc2)n1,28,22,53.8,-13.4,10%,10%
COc1cccc(Nc2nc(NCCO)c3ccccc3n2)c1,-37.9,-0.8,-79.8,-30.8,-2%,-5%
O=C(Nc1ccc(Cl)cc1)N1CCN(c2ccc3nncn3n2)CC1,-2.5,-25.3,-4.5,-61.7,-1%,-10%
CC(C)(C)CC(C)(C)NCC(O)COc1ccc(Cl)cc1Cl (stereo not given),26.2,19.8,39.9,32.3,33%,-4%
Cc1ccc(N2C(=O)C3C(C2=O)C2(c4ccccc4)C(=O)C3(c3ccccc3)C(c3ccccc3)=C2c2ccccc2)cc1 (stereo not given),-8,38.2,14.3,31.3,-13%,12%
O=C(Nc1cccc(C(F)(F)F)c1)c1cc(Cl)ccc1O,-24.3,26.7,36.8,-14.2,-1%,3%
CCN(CC)CCCN1CCN(C(=O)c2cccc(-c3noc(C(F)(F)F)n3)c2)CC1,1,-18,13.5,-89.6,0%,-6%
COc1cc(-c2nc(-c3ccccc3)c(-c3ccccc3)[nH]2)cc(OC)c1O,3.8,-17.1,38.3,-59.8,1%,-13%
N#Cc1nc(-c2ccccc2F)oc1NCCc1ccccc1,-2,28,-14.5,6.5,-3%,-5%
COc1ccc(-c2nc(-c3cccc(NC(=O)Cc4ccc(F)cc4)c3)no2)cc1OC,-38,-2,0.3,-5.4,-7%,-7%
COc1cccc(O)c1CN1CCC2(CCCN(Cc3ccc(F)cc3)C2)C1 (stereo not given),6.3,21,-31.6,7.5,0%,-6%
Cc1cc(NCCc2ccccc2)nc(NC(=N)Nc2ccc(Cl)cc2)n1,34,-135,37.4,-375,4%,-11%
CNC1C(OC2C(OC3C(O)C(O)C(N=C(N)N)C(O)C3N=C(N)N)OC(C)C2(O)C=O)OC(CO)C(O)C1O (stereo not given),14,-7,-8.9,-2.7,2%,12%
COc1ccc(-c2onc(C(F)(F)F)c2-c2ccc(Cl)cc2)c(O)c1,-7,-10,-69.3,-3.3,-5%,-4%

Compound,"hypnozoite quantity inhibition [1, 4]","hypnozoite quantity inhibition [1, 5]","schizont net growth area inhibition [2, 4]","schizont net growth area inhibition [2, 5]","hepatic nuclei reduction [3, 4]","hepatic nuclei reduction [3, 5]"
Cc1cc(Nc2ccncc2)n2nc(C)c(-c3ccccc3Cl)c2n1,39,35,-25.1,-54.7,-5%,1%
O=C(Nc1cnc2ccccc2c1)c1cccc(-n2cnnn2)c1,-3,43,-10.4,59.2,-9%,2%
Cc1nc(-c2ccccn2)nc(N2CCC(Cc3ccccc3)C2)c1Cl (stereo not given),52,-15,7.1,-38.3,3%,1%
COc1cc(Br)cc2cc(C(=O)Nc3cccc(C(F)(F)F)c3)c(=O)oc12,8,-23,-26,-95.8,7%,2%
O=C1c2ccccc2-c2nnc(-c3ccc(Br)cc3)cc21,-5.8,63.4,6,36.2,-7%,-2%
CCCn1c(CNc2ccccc2O)nc2ccccc21,3,-18,29.9,-29.5,-7%,-9%
CC(=O)Nc1nnc(SCc2c(C)cc(C(C)(C)C)cc2C)s1,4.4,34.6,40.2,-14.3,4%,-8%
COc1ccc(-c2nc(N3CCN(C(=O)C4CCCCC4)CC3)c3c4c(sc3n2)CCCC4)cc1,8.8,23.7,50.1,-38,3%,-6%
COc1ccc(CCNC(=O)c2cc(S(=O)(=O)N3CC(C)CC(C)C3)ccc2Sc2ccc(F)cc2)cc1OC (stereo not given),21,17.6,-42.6,-58.7,0%,-2%
O=C(Nc1ccc(-c2nc3ccccc3[nH]2)cc1)c1ccc(Cl)c(Cl)c1,7.6,-63.4,49.3,-188,1%,-6%
O=C(Nc1ccc(C(F)(F)F)c(C(F)(F)F)c1)c1cc(Cl)ccc1O,56,-28,27,-79.3,11%,1%
Cc1cc(OCC(=O)Nc2ccc(C(C)C)cc2)n(C)c(=O)c1C#N,-93,-38,-37.3,-106,-9%,-4%
CC(C)(C)C(=O)Nc1ccc(C(=O)Nc2cccc(-c3nc4ccccc4[nH]3)c2)cc1,-2,40.5,96,54.3,3%,-3%
Cc1ccc2c(c1C)NC(=O)C21NN=C(c2ccccc2)S1 (stereo not given),24,3,47.5,-18.1,16%,19%
CC1CCC2C(C)C(OC(=O)CCC(=O)O)OC3OC4(C)CCC1C32OO4 (stereo not given),41,-17,61.5,20.2,10%,-2%
COC(=O)c1ccc(Cl)c2c1C1C=CCC1C(c1cccc3ccccc13)N2 (stereo not given),-14.7,17.6,-10.7,-24.7,-4%,-4%
CCOc1ccccc1NC(C)C(=O)Nc1cc(C(F)(F)F)ccc1N1CCOCC1 (stereo not given),-3,16,-29.5,26.3,-8%,-3%
CN(C)c1ccc(-c2nc3cc(N)ccc3[nH]2)cc1,79.6,4.7,88,-17.7,2%,3%
OC1CCCCC1C1(NC(=S)Nc2ccccc2)CCCCC1 (stereo not given),37.9,15.6,92.4,-26.8,-6%,3%
CC(C)C(C(=O)Nc1ccc(S(=O)(=O)N(C)C)cc1)c1ccc(Cl)cc1 (stereo not given),11,-23,32.3,-56,4%,2%
Cc1cc(NC(=O)c2ccc(S(=O)(=O)N(Cc3ccccc3)C(C)C)cc2)no1,-15,-29,-57.4,32.3,-6%,13%
CC(=O)Nc1ccc(-c2noc(CC3CCCN(Cc4cccc(F)c4C)C3)n2)cc1 (stereo not given),13,-4,-15.5,-27.5,-1%,1%

# Look-ups from above:
# hepatic nuclei reduction [3, 4] with Cc1nc(-c2ccccn2)nc(N2CCC(Cc3ccccc3)C2)c1Cl (stereo not given) reads 3%
# hepatic nuclei reduction [3, 4] with Cc1ccc2c(c1C)NC(=O)C21NN=C(c2ccccc2)S1 (stereo not given) reads 16%
# hepatic nuclei reduction [3, 5] with COc1cc2c3cc1Oc1c(OC)c(OC)cc4c1C(Cc1ccc(O)c(c1)Oc1ccc(cc1)CC3N(C)CC2)N(C)CC4 (stereo not given) reads 6%

# (continued)

Compound,"hypnozoite quantity inhibition [1, 4]","hypnozoite quantity inhibition [1, 5]","schizont net growth area inhibition [2, 4]","schizont net growth area inhibition [2, 5]","hepatic nuclei reduction [3, 4]","hepatic nuclei reduction [3, 5]"
COc1cc(NC(=O)Cc2nn(C)c(=O)c3ccccc23)ccc1Cl,14,6,30.8,-32.1,-7%,-6%
Cc1cc(CCCOc2c(C)cc(-c3noc(C(F)(F)F)n3)cc2C)on1,-68,-22,-43.3,-242,-6%,-3%
CCc1nc2ccc(C(=O)NCc3ccc4c(c3)OCO4)cn2c1N(C)Cc1cccs1,21,-20,11.5,5.9,-1%,0%
CC(C)CNC(=O)c1c(N)n(CCc2ccccc2F)c2nc3ccccc3nc12,-23.6,35.9,23.7,14.1,-13%,-3%
O=C(Nc1ccnc(-c2cccnc2)n1)c1cc(C(F)(F)F)cc(C(F)(F)F)c1,14,-23,14.2,-47.7,-7%,0%
COc1cc2[nH]c(C)c(-c3ccc(Oc4ccc(OC(F)(F)F)cc4)cc3)c(=O)c2cc1Cl,2,23,75,60.1,-10%,-12%
CC(C)=CCC/C(C)=C\CNCCNC1C2CC3CC(C2)CC1C3 (stereo not given),-14,-28,5.5,11.5,-12%,-8%
Cc1cc2nc(NC(=O)C(C)(C)C)nc(Cl)c2n1Cc1ccc(Cl)cc1,27,-57,5.9,-123,0%,2%
N#Cc1ccc(-c2ccc(OCC(N)=O)cc2)cc1,-6,-36,3,-115,-4%,8%
CCOc1ccc(-c2nc(NC(=O)CS(=O)(=O)c3ccccc3)sc2C)cc1,28,-2,17.4,8.9,1%,3%
Cc1ccc2cc3c(N)c4c(C)ccc(C)c4nc3nc2c1,17.3,40.5,14.4,-49.7,-11%,10%
CCOC(=O)c1c(NC(=O)c2c(F)c(F)c(F)c(F)c2F)sc(C(N)=O)c1C,14,24,30.9,45.3,-1%,-3%
CN(C)c1ccc(C=Cc2nc(=O)c3ccccc3o2)cc1,47,22.1,58.3,-34.3,-7%,12%
COCCn1c(C)nc2ccccc2c1=O,3.9,47.3,2.4,37.3,-1%,-4%
O=C(N[C@H](Cc1ccccc1)C(=O)Nc1ccccc1N1CCOCC1)c1cccs1,13,-10,10.1,-83,-7%,3%
c1ccc(C2=Nc3ccccc3N=C(c3ccccc3)c3ccccc32)cc1,8.2,26.5,45.2,28.6,1%,-5%
CCOC(=O)c1cnc2c(CC)cccc2c1O,0,4.7,34.8,-106,-4%,-3%
C[n+]1c2ccccc2nc2ccc(NCCO)cc21,32.9,-3.1,-6.8,-72.1,-14%,4%
Clc1cc(Br)ccc1-c1ccc(CNCC2CCNCC2)o1,19,7.4,56.7,8.1,8%,-9%
CCN(CC)CCCC(C)Nc1ccnc2cc(Cl)ccc12 (stereo not given),-35,25.3 ± 22,-79.9,36 ± 72,-4%,-3.5 ± 3.5%
CCc1ccc(Nc2cc(C)c3ccc(O)cc3n2)cc1,-3.5,40.5,-11.7,0.7,-10%,3%
